Measured values: paper doi:10.1101/2020.07.06.189977 (bioRxiv, 2020)
No constants are given. Whether binding was seen depends on the method and setting. Some binding calls cover weakened binding; strength is not graded here.

Chains of the proteins cited; added tags and fusions are not shown. Residues count along the entry.
UniProt Q9Y618, residues 649-671: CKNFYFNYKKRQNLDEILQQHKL
UniProt P03372: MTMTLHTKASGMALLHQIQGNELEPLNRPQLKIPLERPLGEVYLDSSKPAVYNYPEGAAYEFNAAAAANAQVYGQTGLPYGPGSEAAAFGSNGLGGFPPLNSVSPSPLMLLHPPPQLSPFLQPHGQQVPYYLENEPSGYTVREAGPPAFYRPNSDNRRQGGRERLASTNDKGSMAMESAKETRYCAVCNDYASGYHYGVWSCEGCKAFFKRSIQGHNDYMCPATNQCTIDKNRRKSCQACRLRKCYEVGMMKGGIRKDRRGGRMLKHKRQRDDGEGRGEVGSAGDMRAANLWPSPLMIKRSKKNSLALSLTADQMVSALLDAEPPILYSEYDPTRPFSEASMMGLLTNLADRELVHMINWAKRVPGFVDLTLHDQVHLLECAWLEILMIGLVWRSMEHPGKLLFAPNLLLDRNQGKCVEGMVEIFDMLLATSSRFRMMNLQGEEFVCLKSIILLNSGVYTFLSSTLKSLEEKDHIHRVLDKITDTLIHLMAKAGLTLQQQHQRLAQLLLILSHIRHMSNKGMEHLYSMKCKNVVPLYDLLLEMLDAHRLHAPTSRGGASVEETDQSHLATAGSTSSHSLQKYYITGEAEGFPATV

How the values were obtained:
Test in all cases: peptide or protein array
[1] = target: NCOR2 peptide (amino acids 649-671) (UniProt Q9Y618)
[2] = target: T1, NRIP1 (amino acids 805–831) peptide (UniProt P48552)
T1 sequence (peptide): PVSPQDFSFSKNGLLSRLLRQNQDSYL

[3] = target: T2, PRDM2 (amino acids 948–970) peptide (UniProt Q13029)
T2 sequence (peptide): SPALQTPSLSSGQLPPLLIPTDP

Measured: binding

full length HA-tagged WT ERa (from UniProt P03372 1-595) (receptor)
binds: all assays above
